Test results: patent US20160045158A1, “DEVICES, SYSTEMS, AND METHODS FOR TRANSDERMAL DELIVERY OF COMPOUNDS” (PROMETHEON PHARMA, LLC, priority 2013, published 2016)
At least one read-out could not be matched to a standard name with certainty.

Assay: Plasma glargine PK in STZ-induced male CD hairless rats (type 1 DM)
Format: in vivo, rat
Details: single 2 U subcutaneous injection
Procedure: Referring to FIG. 14, shown is a 24 Hour PK/PD study showing rapid appearance in and elimination of SC Injected Glargine from the Systemic Circulation. The red plot is the glargine concentration from pooled plasma (average±std dev of ELISA measurements). Blue plot is blood glucose (BG) concentration (average±std dev) measured by ACCU-CHEK® Aviva glucose meter. Average BG (blue line) and range (white horizontal bar) in normal CD hairless rats was determined to be ˜130 mg/dL (100-160 mg/dL) in a cohort of adult rats weighing ˜250 gm.
ELISA to quantitate the plasma glargine level was performed in triplicate on pooled blood for each time point (alternating N=2 and N=3) using the Mercodia Iso-Insulin kit. Blood samples were pooled to allow for adequate sampling of many time points over the course of 24-hour study and to reduce variability. This method has been validated for performing PK studies.
Green plot is plasma glargine concentration (average±std dev). Brown plot is blood glucose concentration (average±std dev) measured by ACCU-CHEK® Aviva glucose meter. Measurements were obtained from all individual animals (N=4) at each time point (i.e. blood samples were not pooled). ELISA to quantitate the plasma glargine level was performed in triplicate on blood samples from individual animals (N=4) at each time point using the Mercodia Iso-Insulin kit.

insulin glargine
time to Cmax: ≤ 1 h
